Laboratory results as given in patent US20160008433A1.
These are yes or no findings as the source states them, for the method shown. Some binding calls cover weakened binding; strength is not graded here.

By UniProt entry, the sequences of proteins in these tests, tags left out. Where a name states a change or a piece, a line headed by the entry shows the natural chain unless it says otherwise.
UniProt P06756: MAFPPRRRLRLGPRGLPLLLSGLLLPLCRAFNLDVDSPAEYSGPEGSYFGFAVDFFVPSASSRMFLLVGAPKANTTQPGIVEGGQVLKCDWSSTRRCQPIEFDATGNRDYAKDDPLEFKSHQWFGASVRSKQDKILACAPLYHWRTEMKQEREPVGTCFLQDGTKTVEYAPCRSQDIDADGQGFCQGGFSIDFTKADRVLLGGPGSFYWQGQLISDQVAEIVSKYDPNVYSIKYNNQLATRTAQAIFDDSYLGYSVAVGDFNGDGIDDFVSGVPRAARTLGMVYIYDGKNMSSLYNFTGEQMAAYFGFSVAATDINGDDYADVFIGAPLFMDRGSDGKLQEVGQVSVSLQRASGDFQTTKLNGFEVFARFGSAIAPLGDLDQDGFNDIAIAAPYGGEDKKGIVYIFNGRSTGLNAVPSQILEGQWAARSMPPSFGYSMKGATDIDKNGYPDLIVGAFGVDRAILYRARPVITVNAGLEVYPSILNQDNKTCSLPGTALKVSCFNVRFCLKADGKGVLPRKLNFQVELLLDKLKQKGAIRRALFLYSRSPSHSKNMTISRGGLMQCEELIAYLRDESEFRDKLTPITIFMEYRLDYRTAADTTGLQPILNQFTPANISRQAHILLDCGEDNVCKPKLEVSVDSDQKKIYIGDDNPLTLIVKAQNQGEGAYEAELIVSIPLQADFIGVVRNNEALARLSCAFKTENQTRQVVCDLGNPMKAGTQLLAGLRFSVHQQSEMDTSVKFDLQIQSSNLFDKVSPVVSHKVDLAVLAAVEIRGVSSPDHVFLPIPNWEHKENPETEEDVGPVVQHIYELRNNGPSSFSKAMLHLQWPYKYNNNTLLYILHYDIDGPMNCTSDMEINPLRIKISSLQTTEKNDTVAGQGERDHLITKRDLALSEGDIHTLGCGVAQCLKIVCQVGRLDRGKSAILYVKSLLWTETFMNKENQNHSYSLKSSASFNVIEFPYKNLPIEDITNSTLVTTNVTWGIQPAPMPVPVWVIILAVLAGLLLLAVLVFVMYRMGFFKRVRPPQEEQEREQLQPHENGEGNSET
UniProt P08648: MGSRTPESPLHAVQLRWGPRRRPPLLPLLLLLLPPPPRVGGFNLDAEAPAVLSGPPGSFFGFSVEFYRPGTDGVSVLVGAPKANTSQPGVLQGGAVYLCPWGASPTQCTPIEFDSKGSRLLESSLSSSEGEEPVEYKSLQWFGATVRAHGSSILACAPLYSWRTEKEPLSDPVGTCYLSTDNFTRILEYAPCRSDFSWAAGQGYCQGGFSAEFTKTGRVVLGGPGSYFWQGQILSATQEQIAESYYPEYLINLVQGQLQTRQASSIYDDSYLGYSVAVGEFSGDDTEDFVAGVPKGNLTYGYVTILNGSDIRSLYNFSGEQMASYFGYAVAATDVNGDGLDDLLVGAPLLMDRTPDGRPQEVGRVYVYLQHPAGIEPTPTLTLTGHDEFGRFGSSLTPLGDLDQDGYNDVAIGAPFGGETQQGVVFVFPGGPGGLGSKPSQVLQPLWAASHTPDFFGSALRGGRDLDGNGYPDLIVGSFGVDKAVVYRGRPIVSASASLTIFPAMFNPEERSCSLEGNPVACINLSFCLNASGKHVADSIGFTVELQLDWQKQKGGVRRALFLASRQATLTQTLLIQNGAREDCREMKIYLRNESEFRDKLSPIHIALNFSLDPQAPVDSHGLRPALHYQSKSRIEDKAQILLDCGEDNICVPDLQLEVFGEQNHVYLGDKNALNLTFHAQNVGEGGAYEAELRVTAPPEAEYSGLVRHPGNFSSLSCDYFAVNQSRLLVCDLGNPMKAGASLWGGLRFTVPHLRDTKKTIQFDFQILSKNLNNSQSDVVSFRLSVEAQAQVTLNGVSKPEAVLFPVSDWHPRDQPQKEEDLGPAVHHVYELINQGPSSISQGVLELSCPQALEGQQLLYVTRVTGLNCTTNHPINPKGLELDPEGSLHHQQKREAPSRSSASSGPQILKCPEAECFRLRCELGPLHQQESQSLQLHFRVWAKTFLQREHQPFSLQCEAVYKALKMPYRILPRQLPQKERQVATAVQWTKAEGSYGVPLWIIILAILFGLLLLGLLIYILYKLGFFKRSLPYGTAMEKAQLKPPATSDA

Legend:
αVβ3 integrin = αVβ3 integrin (UniProt P06756); experiment: ELISA on plate-coated integrin αVβ3
α5β1 integrin = α5β1 integrin (UniProt P08648); experiment: ELISA on plate-coated integrin α5β1

Binder | binding (αVβ3 integrin) | binding (α5β1 integrin)
225-460 K423Q human ANGPTL3 construct (ligand) TTPFLQLNEIRNVKHDGIPAECTTIYNRGEHTSGMYAIRPSNSQVFHVYCDVISGSPWTLIQHRIDGSQNFNETWENYKYGFGRLDGEFWLGLEKIYSIVKQSNYVLRIELEDWKDNKHYIEYSFYLGNHETNYTLHLVAITGNVPNAIPENKDLVFSTWDHKAKGHFNCPEGYSGGWWWHDECGENNLNGKYNKPRAQSKPERRRGLSWKSQNGRLYSIKSTKMLIHPTDSESFE | binds | binds
228-460 K423Q human ANGPTL3 construct (ligand) FLQLNEIRNVKHDGIPAECTTIYNRGEHTSGMYAIRPSNSQVFHVYCDVISGSPWTLIQHRIDGSQNFNETWENYKYGFGRLDGEFWLGLEKIYSIVKQSNYVLRIELEDWKDNKHYIEYSFYLGNHETNYTLHLVAITGNVPNAIPENKDLVFSTWDHKAKGHFNCPEGYSGGWWWHDECGENNLNGKYNKPRAQSKPERRRGLSWKSQNGRLYSIKSTKMLIHPTDSESFE | binds | binds
233-460 K423Q human ANGPTL3 construct (ligand) EIRNVKHDGIPAECTTIYNRGEHTSGMYAIRPSNSQVFHVYCDVISGSPWTLIQHRIDGSQNFNETWENYKYGFGRLDGEFWLGLEKIYSIVKQSNYVLRIELEDWKDNKHYIEYSFYLGNHETNYTLHLVAITGNVPNAIPENKDLVFSTWDHKAKGHFNCPEGYSGGWWWHDECGENNLNGKYNKPRAQSKPERRRGLSWKSQNGRLYSIKSTKMLIHPTDSESFE | binds | binds
241-460 K423Q human ANGPTL3 construct (ligand) GIPAECTTIYNRGEHTSGMYAIRPSNSQVFHVYCDVISGSPWTLIQHRIDGSQNFNETWENYKYGFGRLDGEFWLGLEKIYSIVKQSNYVLRIELEDWKDNKHYIEYSFYLGNHETNYTLHLVAITGNVPNAIPENKDLVFSTWDHKAKGHFNCPEGYSGGWWWHDECGENNLNGKYNKPRAQSKPERRRGLSWKSQNGRLYSIKSTKMLIHPTDSESFE | binds | binds
242-460 K423Q human ANGPTL3 construct (ligand) IPAECTTIYNRGEHTSGMYAIRPSNSQVFHVYCDVISGSPWTLIQHRIDGSQNFNETWENYKYGFGRLDGEFWLGLEKIYSIVKQSNYVLRIELEDWKDNKHYIEYSFYLGNHETNYTLHLVAITGNVPNAIPENKDLVFSTWDHKAKGHFNCPEGYSGGWWWHDECGENNLNGKYNKPRAQSKPERRRGLSWKSQNGRLYSIKSTKMLIHPTDSESFE | binds | binds
